From patent US20120135451A1, “Method and Apparatus for Evaluation of Toxicity” (BIOPHOS SA, priority 2009, published 2012)

Test system: boar spermatozoa
Assay: Toxicity evaluation by motility of boar spermatozoa (Qualisperm)
Assay type: cell-based
Conditions: 0.5 h, % motile spermatozoa (all moving spermatozoa), 30 minutes incubation, around 60 million/ml boar spermatozoa, read-out: IC50 % motille
Procedure: Quadruple samples of each test compound were prepared in varying concentrations by serial dilution in a 96 microwell-plate by serial dilution into XCell with DMSO. Equal volumes (50 μl) of boar spermatozoa in a concentration of around 60 million/ml were added to all sample solutions. Subsequently, the microwell plate was shaken and incubated for 30 minutes. The dosing was performed by using an automated TECAN® robot. After the incubation the sample solutions were pipetted on a Leja® slide and the motility of the spermatozoa was analysed using a Qualisperm® apparatus from Biophos AG. A dose response curve was obtained where % motile spermatozoa (all the moving spermatozoa), % progressive spermatozoa (share of spermatozoa above a pre-determined threshold, here: above 25 μm/sec), or mean speed of total motile spermatozoa was plotted as a function of the logarithmic concentration of the test compound expressed in mM. From the dose curve IC50 values were calculated.

Compound CCCCc1oc2ccccc2c1C(=O)c1cc(I)c(OCCN(CC)CC)c(I)c1 [Amiodarone] has an IC50 of 11 µM.
